# Assay results from PubChem BioAssay AID1347075 (National Center for Advancing Translational Sciences (NCATS), 2019).
# Hit rate of the full screen: of about 400,000 compounds, about 5,500 (1.4%) were called active. Inconclusive means that the source gave no clear call. Such entries were picked first, then a sample of the others. Calls follow the shape of the dose curve; as a rule, active = well fitted cell-killing curve with a large enough effect; inconclusive = small, poorly fitted or top-dose-only effect, or effect the other way; inactive = flat fitted curve, though single readings scatter. Potencies of inconclusive entries are doubtful fits and often do not repeat.
# Assay: qHTS assay for MDR1-selective chemotherapeutics: Primary screen using the parental adenocarcinoma cell KB-3-1; also: nearly all actives have a fitted effect of over 60% in size
# Details: KB-3-1 viability, CellTiter-Glo ATP luminescence, 72 h; activity change, negative = cytotoxic: at 46.1 µM (top of the series)
# Summary of the method: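 Multi-concentration cytotoxicity screen in KB-3-1 cells grown in DMEM lacking phenol red with 10% FBS. After 72 h at 37 °C with compound, ATP-dependent luminescence was recorded.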
# % is scaled to controls: 0 for no effect and ±100 for the full control effect; potency is read from the fitted curve at half-maximal effect.
SMILES,Potency,"activity change, negative = cytotoxic"
COc1ccccc1NC(=O)C1=C(C)NC(=O)NC1c1cc(C)cs1 (stereo unspecified),"inconclusive: 13 µM [rising, partial curve, poor fit]",
COc1cc(C(=O)N(Cc2cccc(Cl)c2)C2CCS(=O)(=O)C2)cc(OC)c1OC (stereo unspecified),,inactive: 5.55%
CN(C)CCNc1oc(/C=C/c2ccccc2)nc1C#N,,inactive: 25.1%
COc1ccc(Oc2coc3c(CN4CCOCC4)c(O)ccc3c2=O)cc1,,inconclusive: 8.19%
COCCNC(=O)C1(C)CCCN(Cc2ccc(Cl)nc2)C1 (stereo unspecified),,inactive: 0%
[O-][n+]1cccc2c(Br)cc(Br)c(O)c21,"inconclusive: 29.1 µM [cytotoxic, single point]",
CCOc1ccc(NS(=O)(=O)c2ccc(C(=O)NNC(=O)c3ccccc3O)cc2)cc1,"inconclusive: 29.1 µM [cytotoxic, single point]",
CCCOc1ccc(F)cc1-c1cc(C(=O)Nc2ccccc2)[nH]n1,,inactive: 0%
CCOCCOC(=O)c1cccc2c1-c1ccccc1C2=O,,inactive: -12.3%
Cc1ccc(-c2nc(-c3ccccn3)no2)cc1Cl,"inconclusive: 18.4 µM [cytotoxic, single point]",
COc1ccc(CNC(=O)c2cc3c(=O)n(Cc4cccs4)ccc3nc2C)cc1,active: 18.4 µM,
c1ccc(CSc2nnc(-c3ccco3)n2Cc2ccco2)cc1,"inconclusive: 29.1 µM [cytotoxic, partial curve, poor fit]",
CC1=[N+](C)c2c(ccc3cccnc23)C1(C)C,active: 10.3 µM,
O=C(Nc1ccccc1N1CCCCC1)c1cc(S(=O)(=O)N2CCOCC2)ccc1F,"inconclusive: 18.4 µM [cytotoxic, single point]",
Cn1c(NCc2cccnc2)nc2cc(-c3ccc(F)cc3)sc2c1=O,,inactive: -0.0429%
CCOC(=O)C1(C(N)=O)OC1(c1ccc(Cl)cc1)c1ccccc1Cl (stereo unspecified),,inactive: 4.46%
O=C(Nc1cccnc1)c1cccc(S(=O)(=O)N2CCCC2)c1,,inconclusive: -6.94%
O=C(c1ccncc1)N1CCN(S(=O)(=O)c2ccc3ccccc3c2)CC1,"inconclusive: 0.651 µM [cytotoxic, partial curve, poor fit]",
Cc1ccc(NC(=O)C(OC(=O)c2ccc(NC(N)=O)cc2)c2ccccc2)cc1Cl (stereo unspecified),"inconclusive: 23.1 µM [cytotoxic, single point]",
Cc1ccc2nc(NC(=O)c3cc(-c4ccco4)nc4ccccc34)sc2c1,"inconclusive: 29.1 µM [cytotoxic, single point]",
Cn1ncc2c(O/N=C(\N)c3ccc(C(C)(C)C)cc3)ncnc21,"inconclusive: 11.6 µM [cytotoxic, partial curve, poor fit]",
